Reference: paper PMC10082759, “Shieldin complex assembly kinetics and DNA binding by SHLD3” (Communications Biology, 2022)
Numbering of substitutions follows the chain as printed. For part of these data: The comparison behind a weaker result is the experiment's own reference, which may not be listed here. For part of these data: Tags and fusion partners may be left off the protein sequences shown. For part of these data: For at least one entry, the source does not settle the construct or the ends of the probe. For part of these data: At least one verdict rests on a figure or table, not on a statement of the authors.

Assays:
[1] = system: SHLD3 + SHLD2 1-95 + REV7 R124A; assay: fluorescence anisotropy; conditions: Kd within 144-576 nM range for the overhang/hairpin set, 20 mM Na-HEPES pH 7.5, 5% glycerol, 100 mM NaCl, 0.5 mM TCEP, 10 nM DNA, 30 min, room temperature, recombinant protein
[2] = molecular target: T1, SHLD3 CTD H242A K243A (human) (UniProt Q6ZNX1); assay: fluorescence anisotropy; conditions: strong reduction of signal, 20 mM Na-HEPES pH 7.5, 5% glycerol, 100 mM NaCl, 0.5 mM TCEP, 10 nM DNA, 30 min, room temperature, recombinant protein, residues 140-250, protein details: MBP or GST tag, cleaved (PreScission)
T1 sequence (looked up): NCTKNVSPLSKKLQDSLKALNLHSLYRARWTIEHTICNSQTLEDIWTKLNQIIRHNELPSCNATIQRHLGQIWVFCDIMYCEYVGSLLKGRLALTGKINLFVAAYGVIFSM

SHLD3 CTD (human) = molecular target: T2, SHLD3 CTD (human) (UniProt Q6ZNX1); assay: competition with a labelled probe; conditions: 1 uM competitor vs 10 nM FAM-ssDNA, 1 uM protein; 20 mM Na-HEPES pH 7.5, 5% glycerol, 100 mM NaCl, 0.5 mM TCEP; 10 nM DNA, 30 min, room temperature; recombinant protein; residues 140-250; protein details: MBP or GST tag, cleaved (PreScission)
T2 sequence (looked up): T1 sequence (looked up) with A103H, A104K

AGTGCCAGTGCC / CACTGGCACT [10ds2ss]
binding result ([1]; label: 5(6)-FAM on strand 1): binds

AGTGCCAGTGCC / ACTGGCACT [9ds3ss]
binding result ([1]; label: 5(6)-FAM on strand 1): binds

GTAGGAAGGGGAGCGGGGGAGGATAATAGG / CCTATTATCCTCCCC [15-bp 5'-tailed DNA]
binding result ([1]; label: 5(6)-FAM): binds

TTAGGGTTAGGG [telomeric ssDNA]
binding result ([2]; label: 5(6)-FAM, single-stranded DNA): binds more weakly

AGTGCCAGTGCC (double strand) [non-telomeric dsDNA competitor]
binding result (SHLD3 CTD (human)): binds

TTAGGGTTAGGG (double strand) [dsTelo]
binding result ([2]; label: 5(6)-FAM on strand 1): binds more weakly

TCCCCTTCCTACTTTTTTGTAGGAAGGGGAGCGGGGGAGGATAATAGG [hairpin DNA with ssDNA tail]
binding result ([1]; label: 5(6)-FAM, folded or branched DNA): binds

GTAGGAAGGGGAGCGGGGGAGGATAATAGG / CGCTCCCCTTCCTAC [15-bp 3'-tailed DNA]
binding result ([1]; label: 5(6)-FAM): binds

AGTGCCAGTGCC / GCACTGGCACT [11ds1ss]
binding result ([1]; label: 5(6)-FAM on strand 1): binds
